Results taken from paper PMC3149277.

Key:
[1] = target: T1, human iRhom1 (Rhbdf1), C-terminal triple HA tag (human) (UniProt Q96CC6); test: co-IP; HA-tagged iRhoms and FLAG-tagged proteins coexpressed in HEK293 ET cells; lysis in 1% Triton X-100, 150 mM NaCl, 50 mM Tris-HCl pH 7.4; iRhoms immunoprecipitated with anti-HA affinity gel, 1 h at 4°C; washes with 300 mM NaCl; FLAG-tagged co-precipitated proteins detected by Western blot
T1 sequence: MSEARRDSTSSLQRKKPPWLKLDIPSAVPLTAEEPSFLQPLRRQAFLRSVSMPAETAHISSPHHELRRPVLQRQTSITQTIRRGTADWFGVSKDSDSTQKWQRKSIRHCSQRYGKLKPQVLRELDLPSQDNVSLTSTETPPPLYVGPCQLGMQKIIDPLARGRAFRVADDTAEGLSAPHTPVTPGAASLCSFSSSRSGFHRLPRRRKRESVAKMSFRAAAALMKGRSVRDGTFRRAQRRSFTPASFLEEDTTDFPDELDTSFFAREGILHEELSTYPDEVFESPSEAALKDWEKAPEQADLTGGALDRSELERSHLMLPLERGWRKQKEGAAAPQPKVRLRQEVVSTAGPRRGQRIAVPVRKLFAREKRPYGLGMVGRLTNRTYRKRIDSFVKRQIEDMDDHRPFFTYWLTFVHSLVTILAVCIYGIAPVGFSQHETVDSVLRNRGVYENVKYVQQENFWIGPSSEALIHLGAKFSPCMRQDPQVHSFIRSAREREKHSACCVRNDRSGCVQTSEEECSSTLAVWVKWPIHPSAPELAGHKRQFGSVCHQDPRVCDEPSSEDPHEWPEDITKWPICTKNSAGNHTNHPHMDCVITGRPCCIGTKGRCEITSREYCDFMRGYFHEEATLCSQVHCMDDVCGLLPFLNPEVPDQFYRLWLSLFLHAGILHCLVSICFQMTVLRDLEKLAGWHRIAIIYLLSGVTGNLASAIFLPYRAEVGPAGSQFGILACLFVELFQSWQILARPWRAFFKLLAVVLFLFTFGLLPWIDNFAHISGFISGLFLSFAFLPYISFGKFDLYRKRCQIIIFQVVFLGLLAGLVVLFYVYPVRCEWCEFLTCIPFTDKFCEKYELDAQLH

[2] = target: T2, mouse iRhom2 (Rhbdf2), C-terminal triple HA tag (mouse) (UniProt Q80WQ6); test: as above
T2 sequence: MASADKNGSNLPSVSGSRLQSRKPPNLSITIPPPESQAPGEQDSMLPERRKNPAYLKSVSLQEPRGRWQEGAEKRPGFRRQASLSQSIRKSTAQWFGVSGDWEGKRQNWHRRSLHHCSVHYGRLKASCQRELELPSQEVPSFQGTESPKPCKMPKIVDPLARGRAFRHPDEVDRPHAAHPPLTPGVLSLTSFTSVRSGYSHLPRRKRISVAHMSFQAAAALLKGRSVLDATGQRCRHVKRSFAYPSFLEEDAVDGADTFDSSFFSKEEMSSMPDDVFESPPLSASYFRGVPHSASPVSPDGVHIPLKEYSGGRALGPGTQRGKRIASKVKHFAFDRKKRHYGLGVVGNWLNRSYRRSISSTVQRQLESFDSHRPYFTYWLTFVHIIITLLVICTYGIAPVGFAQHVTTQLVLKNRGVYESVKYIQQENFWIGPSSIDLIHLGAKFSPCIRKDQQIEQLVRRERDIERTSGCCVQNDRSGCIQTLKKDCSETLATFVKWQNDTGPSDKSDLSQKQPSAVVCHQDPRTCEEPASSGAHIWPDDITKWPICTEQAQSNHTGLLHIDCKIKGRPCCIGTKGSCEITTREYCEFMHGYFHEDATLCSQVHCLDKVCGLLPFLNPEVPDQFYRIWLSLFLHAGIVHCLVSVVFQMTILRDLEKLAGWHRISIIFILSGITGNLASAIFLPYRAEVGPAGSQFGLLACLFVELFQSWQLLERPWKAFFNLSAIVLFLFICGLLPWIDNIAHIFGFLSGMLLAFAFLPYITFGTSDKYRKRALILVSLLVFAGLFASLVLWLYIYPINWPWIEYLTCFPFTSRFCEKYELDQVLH

Flag-tagged mouse TGN36
binding [1]: no binding
binding [2]: no binding

No constants are given. Whether binding was seen depends on the method and setting. In cells and extracts the contact can be indirect. Tags and fused reporters may be left off the sequences shown.
